Source: patent publication US20110306060A1
No constants are given. Whether binding was seen depends on the method and setting. Some results given as binding are weak or reduced against the parent protein; the word gives no strength.

Sequences of proteins named here, by UniProt entry; tags and fusion partners are left off. Residues count along the entry.
UniProt Q8NBP7, residues 31-692: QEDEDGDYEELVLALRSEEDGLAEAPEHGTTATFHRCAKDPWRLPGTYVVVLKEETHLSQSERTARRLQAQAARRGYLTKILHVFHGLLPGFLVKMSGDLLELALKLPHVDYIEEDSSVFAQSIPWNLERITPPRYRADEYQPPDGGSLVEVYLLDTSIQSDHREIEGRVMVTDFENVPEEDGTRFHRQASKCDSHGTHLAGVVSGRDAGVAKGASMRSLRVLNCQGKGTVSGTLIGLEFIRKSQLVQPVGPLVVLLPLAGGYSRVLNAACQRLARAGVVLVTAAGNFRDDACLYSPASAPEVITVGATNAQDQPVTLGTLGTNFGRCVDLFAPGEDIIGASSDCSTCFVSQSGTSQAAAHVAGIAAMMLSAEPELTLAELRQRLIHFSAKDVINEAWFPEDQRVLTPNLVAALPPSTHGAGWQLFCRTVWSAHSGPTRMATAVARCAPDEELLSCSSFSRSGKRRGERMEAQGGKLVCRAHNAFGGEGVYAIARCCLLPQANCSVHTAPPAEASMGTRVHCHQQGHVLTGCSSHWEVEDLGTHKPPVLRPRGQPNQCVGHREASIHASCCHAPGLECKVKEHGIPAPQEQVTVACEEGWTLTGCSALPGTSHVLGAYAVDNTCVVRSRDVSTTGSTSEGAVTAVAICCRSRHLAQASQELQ

Target: human PCSK9 (purified human PCSK9 protein) (human) (UniProt Q8NBP7)
Experiment: DELFIA sandwich immunoassay; E07 coated as capture antibody

binding: binds
B1: PCSK9_5_CX3_E07 (E07 coating/capture antibody) (antibody, human IgG2, lambda, V domains shown)
VH: QVQLVESGGGLVQPGGSLRLSCAASGFTFSDHWMHWVRQAPGKGLEWVSYIDYYGSNTHYADSVKGRFTISRDNSKNTLYLQMNSLRAEDTAVYYCARMLYGWNYGVFDYWGQGTLVTVSS
VL: DIELTQPPSVSVAPGQTARISCSGDSLRDKYVHWYQQKPGQAPVVVIYYDTNRPSGIPERFSGSNSGNTATLTISGTQAEDEADYYCAAYTRSIYVFGGGTKLTVLG
